Results deposited as PubChem BioAssay AID1224830 (NIAID, 2016).
In all, the deposit lists about 18,000 reagents; this is an unselected part. Over the whole deposit, about 2,900 (16%) were called active. 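Calls are made per well; low scores hint the gene aids the LPS response, high scores that it dampens it.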 Repeated entries: four replicate wells of each siRNA pool.

Purpose: 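Host factors that control LPS-induced TNF expression in human macrophages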 (primary screen)
Cells: human THP-1 monocytic leukaemia cells, TNF dual-luciferase reporter clone, PMA-differentiated to macrophage-like cells
Reagent: siRNA pool against human genes, 50 nM
Duration: LPS for 4 h, given about 3 days after siRNA transfection
Treatment: bacterial LPS (TLR4 ligand), 10 ng/ml
Measurement: 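Ratio of firefly to renilla light, scaled to the plate median and expressed as a robust z-score per replicate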
Direction: TNF reporter robust z-score: higher = stronger TNF reporter response to LPS
Hit rule: 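Each well counts as active if its z-score is over 2.8 or under -1.5; controls are left without a call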

What did the screen give for CPM?
TNF reporter robust z-score: -1.08; call: inactive

What is on record for CPM?
TNF reporter robust z-score: -0.81; call: inactive

With CPM, what does the deposit list?
TNF reporter robust z-score: 0.7; call: inactive

What did the screen give for CPM?
TNF reporter robust z-score: 0.96; call: inactive

With ANP32A, how do the results read?
TNF reporter robust z-score: 0.78; call: inactive

What did the screen give for ANP32A?
TNF reporter robust z-score: 1.55; call: inactive

For ANP32A, what was measured?
TNF reporter robust z-score: 0.06; call: inactive

What is on record for ANP32A?
TNF reporter robust z-score: -0.74; call: inactive

For PPAN, how do the results read?
TNF reporter robust z-score: 1.73; call: inactive

Which result is listed for PPAN?
TNF reporter robust z-score: 1.08; call: inactive

What is on record for PPAN?
TNF reporter robust z-score: 1.12; call: inactive

With PPAN, what was measured?
TNF reporter robust z-score: 1.09; call: inactive

For OR2A1, how do the results read?
TNF reporter robust z-score: 0.34; call: inactive

Which result is listed for OR2A1?
TNF reporter robust z-score: 0.87; call: inactive

For OR2A1, what was measured?
TNF reporter robust z-score: -0.54; call: inactive

For OR2A1, what does the deposit list?
TNF reporter robust z-score: 2.73; call: inactive

How did the screen score PSMB10?
TNF reporter robust z-score: -0.76; call: inactive

For PSMB10, how do the results read?
TNF reporter robust z-score: 4.83; call: active

For PSMB10, what was measured?
TNF reporter robust z-score: 0.21; call: inactive

What is on record for PSMB10?
TNF reporter robust z-score: 2.1; call: inactive

For CEP76, what does the deposit list?
TNF reporter robust z-score: -0.33; call: inactive

With CEP76, how do the results read?
TNF reporter robust z-score: -0.54; call: inactive

With CEP76, what was measured?
TNF reporter robust z-score: -0.24; call: inactive

For SLC15A1, how do the results read?
TNF reporter robust z-score: 0.5; call: inactive

With SLC15A1, how do the results read?
TNF reporter robust z-score: -0.71; call: inactive

How did the screen score SLC15A1?
TNF reporter robust z-score: -0.55; call: inactive

With SLC15A1, what was measured?
TNF reporter robust z-score: 0.19; call: inactive

What did the screen give for ATF6B?
TNF reporter robust z-score: 0.43; call: inactive

Which result is listed for ATF6B?
TNF reporter robust z-score: -1.39; call: inactive

What did the screen give for ATF6B?
TNF reporter robust z-score: -1.05; call: inactive

With ATF6B, what was measured?
TNF reporter robust z-score: -1.41; call: inactive

With TCAP, how do the results read?
TNF reporter robust z-score: -1.79; call: active

With TCAP, what does the deposit list?
TNF reporter robust z-score: -1.84; call: active

For TCAP, how do the results read?
TNF reporter robust z-score: -1.65; call: active

Which result is listed for TCAP?
TNF reporter robust z-score: -1.64; call: active
